Inconclusive results, whose numbers are uncertain, are shown with a selection of clear calls. A potency beside an inconclusive call is a rough fit, not a confirmed value. Calls of active or inactive are those of the source. The call rests on the fitted dose curve; in most records, active means well fitted cell-killing curve with a large enough effect; inconclusive means small, poorly fitted or top-dose-only effect; inactive means flat fitted curve, though single readings scatter.
Assay: HCC4017 Cell Viability Secondary Assay for qHTS Assay for Epigenetic Modulators
Details: HCC4017 NSCLC viability, CellTiter-Glo ATP luminescence, 72 h; series mostly up to 46.1 µM; activity change, negative = cytotoxicity: at the top concentration
Source text: NIH Molecular Libraries Screening Centers Network [MLSCN] NIH Chemical Genomics Center [NCGC] MLSCN Grant: 1 X01 MH079860-01 Assay Provider: Elisabeth D. Martinez, University of Texas SW Medical Center NCGC Assay Overview: This secondary assay characterizes selected actives identified in the qHTS of the Locus Derepression (LDR) assay (PubChem AID 1865). The LDR assay detects the derepression of a GFP reporter that is stably integrated in a region of the genome of murine c127i mammary cells that is presumably silenced. Compounds that cause derepression of the locus to express GFP are identified by enumerating GFP positive cells using a laser-scanning microplate cytometer. Selected LDR actives were assayed for killing of HCC4017, a patient-derived nonsmall cell lung carcinoma line. Known epigenetic drugs, like histone deacetylase inhibitors, can block cancer cell growth. Cell viability was measured using a luminescence-based detection reagent that measures cellular ATP levels.
NCGC Assay Protocol Summary HCC4017 cells were seeded at 125 cells/5 uL/well in white, solid bottom, 1536 well plates (Grenier). After 16-hour incubation at 37deg C and 5% CO2, 23 nL of compound were transferred into the assay plate via a pin tool. Plates were incubated 72 hours at 37deg C and 5% CO2, then 3.5 uL/well CellTiter-Glo(R) (Promega) detection reagent was added, plates were incubated at ambient temperature for 10 minutes and luminescence was measured by a ViewLux (Perkin Elmer) reader. For further details, see Johnson, RL, Huang, W, Jadhav, A, Austin, CP, Inglese, J, Martinez, ED (2008). A quantitative high-throughput screen identifies potential epigenetic modulators of gene expression. Anal Biochem 375: 237-48.

Which “activity change, negative = cytotoxicity” value does the source give for `COc1ccc(OC)c(N2C(=O)NC(=O)/C(=C\c3ccc([N+](=O)[O-])s3)C2=O)c1` here?
Its value is inactive: -9.21%.

With `O=C1NC(=O)N(CCc2ccc(F)cc2)C(=O)/C1=C/C=C/c1ccccc1` as the compound, how does the Potency read?
The Potency was inconclusive: 7.91 µM [cytotoxic, single point].

With `CN1CSC(=S)N(C)C1` as the compound, how does the Potency read?
Its Potency is inconclusive: 17.7 µM [cytotoxic, partial curve, poor fit].
